# In patent US4672054A (Richter Gedeon Vegyeszeti Gyar Rt., priority 1984, dated 1987):
# Some peptides are written in HELM: one residue between dots, names in brackets for other building blocks, links after the first $.
# Experiment: general procedure: solution-phase peptide synthesis; pentafluorophenyl active esters (OPfp)
# Details: late stage modification step
row,Substance,step yield
1,PEPTIDE1{[Sar].R.V.Y.[Chg].H.P.A}$$$$V2.0,74%
2,Z-Sar-Arg(NO2)-Val-Tyr(Bzl)-Chg-His-Pro-Ala-ONB,91%

# Same assay, conditions: late stage modification step, related to protected octapeptide
row,Substance,step yield
1,PEPTIDE1{[Lac].R.V.Y.[Cpg].H.P.[Lac]}$$$$V2.0,78%
2,PEPTIDE1{[Sar].R.V.Y.[Chg].H.P.A}$$$$V2.0,74%
3,PEPTIDE1{[Sar].R.V.Y.[Chg].H.P.[Lac]}$$$$V2.0,72%
4,PEPTIDE1{[HOAc].R.V.Y.[Chg].H.P.[Lac]}$$$$V2.0,55%
5,PEPTIDE1{[Sar].R.V.Y.[Cpg].H.P.[Lac]}$$$$V2.0,66%
6,PEPTIDE1{[Sar].R.V.Y.[Cpg].H.P.A}$$$$V2.0,69%

# Same assay, conditions: whole synthesis, related to Boc-His(Dnp)-Pro-Ala-ONB
row,Substance,crude yield
1,Z-Sar-Arg(NO2)-Val-Tyr(Bzl)-Chg-His(Dnp)-Pro-Ala-ONB,70%
